{"source": "PubChem BioAssay AID1259415", "about": "(National Center for Advancing Translational Sciences (NCATS), 2018)", "note": "The whole screen tested about 410,000 compounds, of which about 18,000 (4.4%) were called active. The shares of active, inactive and inconclusive entries below differ from those in the screen. Rule as the data show it: active = activity change below about -60%; inconclusive = no clear call, values can overlap the other calls; inactive = above about -39%. % is scaled to controls: 0 for no effect and ±100 for the full control effect."}
{"assay": "qHTS Assay for inhibitors of the human cytomegalovirus (HCMV)", "conditions": "HFF cells, HCMV-luciferase reporter, 72 h; at 57.5 µM; stronger effect = lower value", "procedure,_shortened": "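After 16 h attachment at 37C, HFF cells received test compound and HCMV-luciferase (1 PFU/cell); reporter luminescence read 72 h later, data normalized against buffer-only and known inhibitor Salinomycin.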"}
{"smiles": "COc1ccc(C)cc1NC(=O)CSc1ccc(-c2ccco2)nn1", "activity change, negative = inhibition": "inconclusive: -42%"}
{"smiles": "Cc1cc(-c2ccc(C)c(S(=O)(=O)N3CCN(c4ccccn4)CC3)c2)on1", "activity change, negative = inhibition": "inconclusive: -56.1%"}
{"smiles": "CCn1nc(C(=O)Nc2nc3ccccc3[nH]2)c2ccccc2c1=O", "activity change, negative = inhibition": "inconclusive: -43.7%"}
{"smiles": "Cc1cc(OC(=O)c2ccco2)c2c3c(c(=O)oc2c1)CCCC3", "activity change, negative = inhibition": "active: -66.7%"}
{"smiles": "Cc1nc(C)c(-c2ccc(SCC(=O)Nc3ccc(Br)cc3)nn2)s1", "activity change, negative = inhibition": "active: -68.9%"}
{"smiles": "Cc1ccc2c(NCc3ccco3)nc(NC(C)C)nc2c1", "activity change, negative = inhibition": "inconclusive: -44.7%"}
{"smiles": "C=CCn1c(SCc2ccc(Cl)cc2)nc2cc(C(=O)N3CCC(C(N)=O)CC3)ccc2c1=O", "activity change, negative = inhibition": "inconclusive: -43.1%"}
{"smiles": "COc1ccccc1NC(=O)c1ccc(-c2ccccc2F)o1", "activity change, negative = inhibition": "inactive: 50.4%"}
{"smiles": "NP(=O)(OCCCCc1ccccc1)Oc1ccccc1Cl", "note": "(centres undefined)", "activity change, negative = inhibition": "inconclusive: -47.1%"}
{"smiles": "Oc1ccccc1-c1cc(C(F)(F)F)nc(-c2ccccc2)n1", "activity change, negative = inhibition": "inactive: -38.5%"}
{"smiles": "CC1CC(C)CN(S(=O)(=O)c2ccc(NN)nc2)C1", "note": "(centres undefined)", "activity change, negative = inhibition": "inconclusive: -41.2%"}
{"smiles": "CCc1nnc(NC(=O)CSc2nccn2-c2ccc(OC)cc2)s1", "activity change, negative = inhibition": "inconclusive: -56.4%"}
{"smiles": "CCCc1cc(-c2n[nH]c(=S)n2-c2cccc(C)c2)cs1", "activity change, negative = inhibition": "inconclusive: -48%"}
{"smiles": "Cc1ccc(CNC(=O)C2CCC(=O)N(CCc3ccccn3)C2)s1", "note": "(centres undefined)", "activity change, negative = inhibition": "inconclusive: -44.8%"}
{"smiles": "CC(C)n1cc(-c2nc(C(=O)NN)cs2)c(=O)n(Cc2ccccc2)c1=O", "activity change, negative = inhibition": "active: -68%"}
{"smiles": "CC(C)(C)c1cc(C(=O)NNc2cc(C(F)(F)F)ccc2Cl)n(Cc2ccccc2)n1", "activity change, negative = inhibition": "active: -90.3%"}
{"smiles": "CCC(Cc1ccccc1)n1c(=S)[nH]c2ccccc2c1=O", "note": "(centres undefined)", "activity change, negative = inhibition": "inconclusive: -53.9%"}
{"smiles": "Cc1ccc(NC(=O)Cn2c(=O)oc3cc(S(=O)(=O)N4CCC(C)CC4)ccc32)cc1C", "activity change, negative = inhibition": "active: -68.6%"}
{"smiles": "CN(C)c1cccc2c(S(=O)(=O)NCC3CCN(C(=O)C(=O)c4cc5ccccc5o4)CC3)cccc12", "activity change, negative = inhibition": "inconclusive: -51.7%"}
{"smiles": "Cc1ccccc1NC(=O)c1ccc(C)c(S(=O)(=O)Nc2cccnc2)c1", "activity change, negative = inhibition": "inactive: -20%"}
{"smiles": "CC[C@H]1CN2CCC1C[C@@H]2[C@@H](O)c1ccnc2ccc(OC)cc12", "note": "(some centres undefined)", "activity change, negative = inhibition": "inconclusive: -40.7%"}
{"smiles": "COc1ccc(C(=O)NC(=S)NNC(=O)c2cnccn2)cc1OC", "activity change, negative = inhibition": "inconclusive: -45%"}
{"smiles": "COc1ccc(OC)c(/C=N/NC(=O)c2[nH]nc3c2CCc2ccccc2-3)c1", "activity change, negative = inhibition": "inactive: -38.3%"}
{"smiles": "O=C(OCC(=O)N1CCN(c2ccccc2)CC1)c1cnc(Cl)c(Cl)c1", "activity change, negative = inhibition": "inactive: -29.1%"}
{"smiles": "COCC(=O)Oc1cc(-c2ccc(C)cc2C)c(OC(=O)COC)c(-c2ccc(C)cc2C)c1", "activity change, negative = inhibition": "inconclusive: -46.8%"}
{"smiles": "CCCCN(C)CCCNC(=O)c1cc(-c2ccc(Br)s2)nc2ccccc12", "activity change, negative = inhibition": "active: -68.1%"}
{"smiles": "CN(Cc1ccccc1)S(=O)(=O)c1cc(Br)cc2c1N(C(=O)C1CC1)CC2", "activity change, negative = inhibition": "active: -70.6%"}
{"smiles": "COc1ccc(NC(=O)CSc2nnc(NC(=O)Nc3ccc(OC)cc3)s2)cc1", "activity change, negative = inhibition": "inactive: 110%"}
{"smiles": "Cc1cccc(N2CCN(C(=O)c3cccc(S(=O)(=O)N4CCc5ccccc5C4)c3)CC2C)c1", "note": "(centres undefined)", "activity change, negative = inhibition": "active: -62.2%"}
{"smiles": "Cc1ccc(C)c(CN2C(=O)N(c3cc(Cl)ccc3C)S(=O)(=O)c3ccccc32)c1", "activity change, negative = inhibition": "inconclusive: -47.9%"}
{"smiles": "Cc1nn(Cc2ccccc2)c(Cl)c1C(=O)NC(C)(C)C", "activity change, negative = inhibition": "inactive: -11.7%"}
{"smiles": "COc1ccc(/C(C)=N/N=C(\\C)c2ccc(OC)cc2OC)c(OC)c1", "activity change, negative = inhibition": "inconclusive: -47.3%"}
{"smiles": "CC(C)n1cc(CN2CCC(C(=O)Nc3ccc(Oc4ccccc4F)cc3)CC2)cn1", "activity change, negative = inhibition": "inconclusive: -56.7%"}
{"smiles": "CC1CCCC=CC2CC(OC(=O)CN(C)C)CC2C(O)C=CC(=O)O1", "note": "(centres undefined)", "activity change, negative = inhibition": "active: -97.6%"}
{"smiles": "N=c1sccn1CC(=O)Nc1cccc(S(=O)(=O)N2CCCCCC2)c1", "activity change, negative = inhibition": "inactive: -19.3%"}
{"smiles": "O=C(CSc1ccc([N+](=O)[O-])cn1)Nc1ccc(N2CCOCC2)c(Cl)c1", "activity change, negative = inhibition": "inconclusive: -56.6%"}
{"smiles": "Clc1ccc2nc(N3CCNCC3)nc(-c3ccccc3)c2c1", "activity change, negative = inhibition": "inconclusive: -50%"}
{"smiles": "Cc1nn(-c2ccccc2)c2c1N(CC(=O)N1CCN(c3cccc(Cl)c3)CC1)C(=O)CS2", "activity change, negative = inhibition": "inactive: 6.81%"}
{"smiles": "Cc1cc(C)c2nc(NCc3ccccc3O)sc2c1", "activity change, negative = inhibition": "active: -64.9%"}
{"smiles": "O=C(C[C@H]1CC[C@@H](NS(=O)(=O)c2ccccc2)[C@@H](CO)O1)NCc1ccc(Cl)c(Cl)c1", "activity change, negative = inhibition": "inactive: 8.03%"}
{"smiles": "N#Cc1ccc(OCC(=O)Nc2cc(S(=O)(=O)N3CCOCC3)ccc2N2CCCC2)cc1", "activity change, negative = inhibition": "inactive: 0%"}
{"smiles": "O=C(Nc1nc2ccccc2n1CCN1CCOCC1)c1cn(-c2ccccc2)nc1-c1ccccc1", "activity change, negative = inhibition": "inconclusive: -49.5%"}
{"smiles": "COc1cc([N+](=O)[O-])ccc1Nc1nc(C)cc(C)n1", "activity change, negative = inhibition": "inconclusive: -42.1%"}
{"smiles": "O=C(O)c1ccc(S(=O)(=O)N(Cc2ccc(F)cc2)C2CCCCC2)cc1", "activity change, negative = inhibition": "inactive: -12.5%"}
{"smiles": "Cc1cccc(N2CCN(C(=O)Nc3cn(CC(C)C)c(=O)c4ccccc34)CC2)c1C", "activity change, negative = inhibition": "inactive: 15.7%"}
{"smiles": "Cc1cc(C)c(N=C2CCCN2Cc2ccccc2)c(C#N)c1", "activity change, negative = inhibition": "inactive: -16.3%"}
{"smiles": "Cc1nnc(N2CCC(C(=O)NCCc3ccccc3Cl)CC2)c2nn(-c3ccccc3)c(C)c12", "activity change, negative = inhibition": "active: -91.2%"}
{"smiles": "CC(C)CC1NC(=O)N(CC(=O)Nc2ccc3c(c2)OCCO3)C1=O", "note": "(centres undefined)", "activity change, negative = inhibition": "inconclusive: -54.2%"}
{"smiles": "CCOC(=O)Nc1ccc(S(=O)(=O)NC2CCCCC2)cc1", "activity change, negative = inhibition": "inconclusive: -41.4%"}
{"smiles": "COc1ccccc1NC(=O)c1ccc(NC(=O)CSc2nc(N)cc(=O)[nH]2)cc1", "activity change, negative = inhibition": "inconclusive: -42.2%"}
{"smiles": "CC(C)CC(N)c1csc(NC(=O)c2cc(C(C)(C)C)nn2Cc2ccccc2)n1", "note": "(centres undefined)", "activity change, negative = inhibition": "active: -96.3%"}
{"smiles": "CCCCCCOc1ccc(C2C(=O)N(C3CCCCC3)CC(=O)N2CCC)cc1", "note": "(centres undefined)", "activity change, negative = inhibition": "inactive: 102%"}
{"smiles": "Cc1cc(N2CCN(Cc3ccccc3)CC2)n2nc(C)c(-c3ccccc3)c2n1", "activity change, negative = inhibition": "inconclusive: -54%"}
{"smiles": "Cc1cccc(N2CCN(C(=O)c3cccc(-n4c(C)nc5cccnc54)c3)CC2)c1C", "activity change, negative = inhibition": "inconclusive: 0%"}
